PubChem BioAssay AID504793 | Drosophila RNAi Screening Center – 2011

Purpose: 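Whole-genome screen for parts of the DNA damage checkpoint at G2/M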 (primary screen)
Cells: Drosophila S2R+ cells
Reagents: long dsRNA against Drosophila genes, about 0.25 µg dsRNA per well
Duration: 4 days of dsRNA, then 4 hours of drug before read-out
Conditions: doxorubicin 0.5 µM for 4 hours to cause double-strand breaks, in cells also given a low, harmless dose of dsRNA against nbs to sensitise the assay
Measured: 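Per-well count of mitotic cells stained for phospho-histone H3 after doxorubicin exposure, used as mitotic index; counts are raw and not normalised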
Reading the numbers: mitotic cells: higher = more cells in mitosis, weaker G2 arrest
Rule for the call: 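a call needs confirmation in secondary tests, with other dsRNAs and a check of mitotic timing without damage, not just a high primary count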
Calls: active = confirmed in follow-up tests; inactive = not confirmed
The screen tested about 23,000 reagents; this is an unselected part of those that have a named target and a result. Over the whole deposit, 62 (0.27%) were called active. 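Calls come from follow-up tests whose scores are not deposited, so confirmed genes may have low counts here; counts are not normalised per plate.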 The raw values are shown without normalisation. The numbers tell different reagents against one gene apart. A plus sign joins genes that one reagent is predicted to hit. Reagent sequences are not shown.

What is on record for D19B #1?
mitotic cells, replicate 1: 7; activity call: inactive

What is on record for D19B #2?
mitotic cells, replicate 1: 6; activity call: inactive

For Or98P #1, what was measured?
mitotic cells, replicate 1: 7; activity call: inactive

Which result is listed for Or98P #2?
mitotic cells, replicate 1: 5; activity call: inactive

Which result is listed for lgs?
mitotic cells, replicate 1: 3; activity call: inactive

For Tehao, how do the results read?
mitotic cells, replicate 1: 5; activity call: inactive

With PNPase, what was measured?
mitotic cells, replicate 1: 7; activity call: inactive

For lt, what was measured?
mitotic cells, replicate 1: 3; activity call: inactive

For Sym #1, what was measured?
mitotic cells, replicate 1: 11; activity call: inactive

With Sym #2, what was measured?
mitotic cells, replicate 1: 4; activity call: inactive

Which result is listed for CG17717?
mitotic cells, replicate 1: 8; activity call: inactive

What is on record for CG4297?
mitotic cells, replicate 1: 3; activity call: inactive

What did the screen give for CG15201?
mitotic cells, replicate 1: 18; activity call: inactive

How did the screen score CG30065?
mitotic cells, replicate 1: 2; activity call: inactive

For Fs(2)Ket #1, how do the results read?
mitotic cells, replicate 1: 7; activity call: inactive

What did the screen give for Fs(2)Ket #2?
mitotic cells, replicate 1: 4; activity call: inactive

With ppk14, what was measured?
mitotic cells, replicate 1: 8; activity call: inactive

What is on record for Diap2 #1?
mitotic cells, replicate 1: 3; activity call: inactive

With Diap2 #2, how do the results read?
mitotic cells, replicate 1: 3; activity call: inactive

What did the screen give for CG14933 + CG42486?
mitotic cells, replicate 1: 3; activity call: inactive

For Ppn #1, how do the results read?
mitotic cells, replicate 1: 8; activity call: inactive

With Ppn #2, what was measured?
mitotic cells, replicate 1: 10; activity call: inactive

What did the screen give for CG11693 #1?
mitotic cells, replicate 1: 2; activity call: inactive

What did the screen give for CG11693 #2?
mitotic cells, replicate 1: 9; activity call: inactive

With Dph2 #1, how do the results read?
mitotic cells, replicate 1: 5; activity call: inactive

Which result is listed for Dph2 #2?
mitotic cells, replicate 1: 7; activity call: inactive

Which result is listed for vimar?
mitotic cells, replicate 1: 4; activity call: inactive

What did the screen give for CG44251 #1?
mitotic cells, replicate 1: 6; activity call: inactive

For CG44251 #2, what was measured?
mitotic cells, replicate 1: 1; activity call: inactive

Which result is listed for CG12499?
mitotic cells, replicate 1: 9; activity call: inactive

Which result is listed for orion #1?
mitotic cells, replicate 1: 15; activity call: inactive

For orion #2, what does the deposit list?
mitotic cells, replicate 1: 14; activity call: inactive

With CG13255, how do the results read?
mitotic cells, replicate 1: 12; activity call: inactive

What did the screen give for Gclc?
mitotic cells, replicate 1: 14; activity call: inactive
